This note sets out measurements from patent EP3255116A1, “COMPOSITIONS COMPRISING A FLUOROOLEFIN” (The Chemours Company FC, LLC, priority 2005, dated 2006).

The series in a line: Kinematic viscosity of lactone compatibilizers. As to conditions: at 40°C. Type of series: physicochemical. How it is done: Lactone compatibilizers generally have a kinematic viscosity of less than about 7 centistokes at 40°C. For instance, gamma-undecalactone has kinematic viscosity of 5.4 centistokes and cis-(3-hexyl-5-methyl)dihydrofuran-2-one has viscosity of 4.5 centistokes both at 40°C. Lactone compatibilizers may be available commercially or prepared by methods as described in U. S. patent application 10/910,495 filed August 3, 2004, incorporated herein by reference.

Regarding `CCCCCCCC1CCC(=O)O1` (stereo not shown) [gamma-undecalactone], the kinematic viscosity was determined as 5.4 centistokes.
